Data reported in the RNAGym collection of RNA variant scans (doi:10.1126/science.aae0568).
Variants at the floor of the assay are shown more often than the library holds them.

B1: tRNA (parent)
chain: GUUCCGUUGGCGUAAUGGUAACGCGUCUCCCUCCUAAGGAGAAGACUGCGGGUUCGAGUCCCGUACGGAACG

Variants of: B1
Assay: yeast fitness relative to wild type (ratio to wild type); higher = fitter; tRNA-Arg(CCU), competitive growth, 37 C, YPD
Summary of the method: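 The tRNA-Arg(CCU) gene variants were made by chemical synthesis with a 3% per-site mutation rate at 69 sites and inserted at the native genomic locus of Saccharomyces cerevisiae. After pooling, the strains were competed in YPD at 37°C for 24 hours in six parallel replicates. Gene amplicons from the start population and each end population were read by 100-nucleotide paired-end sequencing, and Darwinian fitness relative to wild type was taken from genotype frequency changes. Genotypes needed ≥ 100 starting reads, and estimates < 0.5 were set to 0.5.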

Row | Variant | yeast fitness
1 | A21G C33G G38A A57U C62U | ≤ 0.5
2 | A21G C66U | 0.858
3 | A21G G23A A57C A65C A70C | ≤ 0.5
4 | A21G G23A C27G A37U A40U | ≤ 0.5
5 | A21G G25A C30G C33U U64A | ≤ 0.5
6 | A21G G56U G58C | 0.661
7 | A21G G67A | 0.956
8 | A21G U53A U54C C61G | 0.718
9 | A21U A36U A45U | ≤ 0.5
10 | A21U A37C A45U | ≤ 0.5
11 | A21U A42C G48A G50C | ≤ 0.5
12 | A21U A42C U47G A69U | ≤ 0.5
13 | A21U A45C G50C U64C | ≤ 0.5
14 | A21U A45U G51A C55G A65C | ≤ 0.5
15 | A21U A45U U53A C62U G68C | ≤ 0.5
16 | A21U A57U | 0.61
17 | A21U C22G C33U A65C | ≤ 0.5
18 | A21U C22U G56A | ≤ 0.5
19 | A21U C27G U28C C30U U53G C61A | 0.78
20 | A21U C29A U35A A43U C62U G68C | ≤ 0.5
21 | A21U C29U A42U C55A U59A C66A A69G | ≤ 0.5

Row | Variant | yeast fitness
22 | A21U C30G C31U G48C | 0.753
23 | A21U C30G C55A A69U | ≤ 0.5
24 | A21U C31A G39C C49U C62G G68A | ≤ 0.5
25 | A21U C31G A45C | ≤ 0.5
26 | A21U C33U G38A A45U C62U | ≤ 0.5
27 | A21U C34G C49G C61U A69G | ≤ 0.5
28 | A21U C34G U53A G58A G63A | ≤ 0.5
29 | A21U C34U G38C | ≤ 0.5
30 | A21U C46G C62A | ≤ 0.5
31 | A21U C61G A69G | ≤ 0.5
32 | A21U G25A U54A | ≤ 0.5
33 | A21U G38C A45G U59A | ≤ 0.5
34 | A21U G56C G63A U64C G67C A69U | ≤ 0.5
35 | A21U G67C G68A | ≤ 0.5
36 | A21U U28A C34G | ≤ 0.5
37 | A21U U28G C55G A65C | ≤ 0.5
38 | A21U U32A G56C C62U | ≤ 0.5
39 | A21U U35A G56U C61G | ≤ 0.5
40 | A21U U35C G44A G48C C55G A69U | ≤ 0.5
41 | A21U U53C U54G | ≤ 0.5
42 | A21U U59A | 0.587

Row | Variant | yeast fitness
43 | C22A A40G G51C A69C | ≤ 0.5
44 | C22A C24A U26C C66U | ≤ 0.5
45 | C22A C24U G44C | ≤ 0.5
46 | C22A C29U A42C | ≤ 0.5
47 | C22A C29U G67U | ≤ 0.5
48 | C22A C30A | 0.686
49 | C22A C31G G68A | ≤ 0.5
50 | C22A C33U | 0.604
51 | C22A C46G G52A A65U | ≤ 0.5
52 | C22A C49U G51C G63A | ≤ 0.5
53 | C22A C60A C62U | ≤ 0.5
54 | C22A C60G | 0.57
55 | C22A G23A C33U C34G G68C | ≤ 0.5
56 | C22A G23C G48A G52A U53C C61A | ≤ 0.5
57 | C22A G25A C29U G56C | ≤ 0.5
58 | C22A G50A G68C | ≤ 0.5
59 | C22A G50C A65G | ≤ 0.5
60 | C22A G51C A69U | 0.74
61 | C22A U28C C60A | ≤ 0.5
62 | C22A U35C A40G | ≤ 0.5
63 | C22G A36C U54C C55U C60A C62G A69U | ≤ 0.5

Row | Variant | yeast fitness
64 | C22G A37G C49A | ≤ 0.5
65 | C22G A40C C49G A57U C66U | ≤ 0.5
66 | C22G A40U C46A | ≤ 0.5
67 | C22G A40U U54A C66U | ≤ 0.5
68 | C22G A42G U59C | ≤ 0.5
69 | C22G A42U G67A | ≤ 0.5
70 | C22G A45U G48C C49G C60U | ≤ 0.5
71 | C22G A69G | 0.952
72 | C22G C24A G44C G51A G58C U59A | ≤ 0.5
73 | C22G C24G C29U C33U A37C U54G A65U G67A | ≤ 0.5
74 | C22G C24G C66U A70C | ≤ 0.5
75 | C22G C24U A37C U59A | ≤ 0.5
76 | C22G C24U U35G G38A G52C | ≤ 0.5
77 | C22G C27G C31G C61G A69U | 0.62
78 | C22G C27G C31U U59C C62U G68U | ≤ 0.5
79 | C22G C29A A36G | ≤ 0.5
80 | C22G C29A A42C G63C | ≤ 0.5
81 | C22G C29G A42U C61G | ≤ 0.5
82 | C22G C29G C31G C55G | ≤ 0.5
83 | C22G C29G C46U C66U | ≤ 0.5
